Data from PubChem BioAssay AID1487 (National Center for Advancing Translational Sciences (NCATS), 2009).
Where “and” joins values, the source holds several entries; their conditions need not be identical. Identical values can stand only once. The list shows a part of the results. These are further read-outs of the screen, such as a control signal, another cell line or another target. No call is given for them. Compounds called inactive in the main read-out are mostly missing here. Words in brackets tell the shape of the fitted curve; partial curves, single points and poor fits give uncertain potencies.

Test: qHTS Assay for Modulators of Lamin A Splicing
Conditions: HeLa LMNA splicing GFP/RFP minigene ratio, 48 h
Method in brief: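 S3 HeLa stable clones carrying a lamin A-EGFP splicing minigene plus DsRed2 were seeded at 600 cells/well in Opti-MEM with 2% FBS, pin-dosed and incubated 48 h at 37°C. Acumen cytometry (488 nm) gave the GFP/RFP total-intensity ratio.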

[1] = measured here: GFP splicing reporter channel
[2] = measured here: RFP viability control channel

Row | Compound | AC50 [1] | AC50 [2]
1 | CNc1sc(C(=O)c2cccs2)c(N)c1-c1nc2ccccc2s1 | 12.6 µM [rising, partial curve] | 15.8 µM [rising, single point]
2 | O=C(O)CCC(=O)c1ccc(-c2ccccc2)cc1 | 1.12 µM [falling, partial curve, poor fit] | 282 nM [falling, single point] and 891 nM [falling, full curve, poor fit]
3 | COC(=O)C1=C(C(=O)OC)[C@@H]2Nc3ccccc3[C@@]23C[C@@H](C(=O)OC)N(C(C)=O)C3=N1 | – | 0.355 µM [falling, single point]
4 | Cc1noc(NS(=O)(=O)c2ccc(NC(=O)C34CC5CC(C3)CC(n3cnc(Cl)n3)(C5)C4)cc2)c1C | 0.398 µM [falling, full curve, poor fit] | –
5 | O=C(CCc1nc(-c2cccs2)no1)Nc1ccc([N+](=O)[O-])cc1 | 10 µM [rising, partial curve] | 12.6 µM [rising, single point]
6 | CC(C)c1ccc(/C=C/C(=O)Nc2nncs2)cc1 | 15.8 µM [rising, partial curve, poor fit] | 17.8 µM [rising, single point]
7 | O=C(N/N=C/c1ccc([N+](=O)[O-])s1)c1ccncc1 | – | 20 µM [falling, single point]
8 | COc1ccc(CNC(=O)C(=O)NCC(c2cccs2)S(=O)(=O)c2cccs2)cc1 (stereo not drawn) | 0.00447 µM [falling, full curve, poor fit] | –
9 | COc1ccccc1N1CCN(C(=O)Cn2nc3n(C)c4ccccc4n3c(=O)c2=O)CC1 | 0.0141 µM [falling, full curve, poor fit] | –
10 | COc1ccc(-n2nnnc2-c2nc3ccccc3s2)cc1 | – | 22.4 µM [rising, partial curve, poor fit]
11 | CC1CCN(C(=S)NC(=O)c2cccs2)CC1 | 7.94 µM [rising, partial curve] | 3.55 µM [rising, single point]
12 | COc1ccc(/C=C/C(=O)O)cc1 | 0.794 µM [falling, full curve, poor fit] | –
13 | O=C(Cc1ccc(Cl)cc1)Nc1ccc(-c2cc3ccccc3oc2=O)c(Cl)c1 | 35.5 µM [falling, single point] | –
14 | Cc1nc2ccc(NC(=S)NC3CCCCC3)cc2nc1C | 6.31 µM [falling, partial curve] | –
15 | COC(=O)c1cc(NC(=O)C2CC(=O)NC(=NCc3ccc(OC)cc3)S2)cc(C(=O)OC)c1 (stereo not drawn) | 2 µM [rising, partial curve] | –
16 | Cc1ccc(C(=O)N/C(=C\c2ccc(-c3ccc(Cl)cc3)o2)C(=O)NCCCN(C)C)cc1 | – | 35.5 µM [falling, single point]
17 | Cc1ccc(NC(=S)NCc2cccn2C)cc1 | 25.1 µM [rising, single point] | 35.5 µM [rising, single point]

Row | Compound | AC50 [1] | AC50 [2]
18 | S=C(NCc1ccc(Cl)cc1Cl)Nc1ccccc1 | 20 µM [rising, single point] | –
19 | Cc1cc(C(=O)NCc2ccccc2)c2c(C)nn(-c3cccc(Cl)c3C)c2n1 | 11.2 µM [rising, partial curve] | 7.94 µM [rising, partial curve, poor fit]
20 | CCOC(=O)N1CCN(C(=O)CSCC(=O)Nc2nc(-c3ccc(Cl)s3)cs2)CC1 | 11.2 µM [rising, partial curve] | 12.6 µM [rising, partial curve]
21 | COc1ccc(-n2nnnc2SCC(=O)NCCc2ccc(OC)c(OC)c2)cc1 | 35.5 µM [rising, single point] | 35.5 µM [rising, single point]
22 | Cc1ccc(NC(=O)CN(c2ccc(C)cc2)S(=O)(=O)c2cccc3nonc23)cc1 | 15.8 µM [rising, single point] | 20 µM [rising, single point]
23 | CCOC(=O)c1c(C)[nH]c(C(=O)Nc2ccc(C)c(Cl)c2)c1C | 35.5 µM [rising, single point] | 35.5 µM [rising, single point]
24 | CN(C)C(=O)/C(=C\c1cccc(Oc2ccccc2)c1)NC(=O)c1ccccc1 | – | 31.6 µM [rising, single point]
25 | CCC(C)C(=O)Nc1nc(C)c(-c2csc(Nc3cc(Cl)ccc3OC)n2)s1 (stereo not drawn) | 2.51 µM [rising, full curve, poor fit] | 15.8 µM [rising, partial curve]
26 | Cc1c(C(=O)N2CCOCC2)oc2ccc(S(=O)(=O)N3CCCCCC3)cc12 | 12.6 µM [rising, partial curve, poor fit] | 20 µM [rising, single point]
27 | O=S(=O)(c1ccc(F)cc1)c1snnc1-c1ccccc1 | 5.62 µM [falling, full curve, poor fit] | 12.6 µM [falling, partial curve]
28 | Cc1nc(-c2ccc(C)c(S(=O)(=O)N3CCC(C(=O)NCc4ccc(F)cc4)CC3)c2)no1 | – | 4.47 µM [rising, single point]
29 | COc1ccc(OC)c(NC(=O)CC2SC(=Nc3ccccc3)N(CCc3ccccn3)C2=O)c1 (stereo not drawn) | – | 3.98 µM [rising, full curve]
30 | COc1ccc(C)cc1NC(=O)c1nnn(CCc2ccccc2)c1N | – | 0.141 µM [rising, full curve, poor fit]
31 | CCCCc1ncc(/C=C(\Cc2cccs2)C(=O)O)n1Cc1ccc(C(=O)O)cc1 | 0.501 µM [falling, single point] | –
32 | NC(=O)/C=C\c1cn(-c2ccccc2)nc1-c1ccc2c(c1)OCCO2 | 1.12 µM [rising, partial curve] | 22.4 µM [rising, partial curve, poor fit]
33 | O=C(Nc1ccc2oc(-c3cccnc3)nc2c1)c1cc2ccccc2o1 | 0.178 µM [rising, full curve, poor fit] | –
